Source: PubChem BioAssay AID1259260 (Sanger Institute, 2017)

- Aim: 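Essential and drug-synergistic kinases in a colorectal cancer cell line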 (primary screen)
- Cell system: human NCI-H716 colorectal cancer cells
- Reagent: siRNA pool against human genes
- Treatment: anchor drugs BYL719 (alpelisib) 1 µM, cetuximab 5 µg/ml or trametinib 10 nM, each at a dose chosen to harm viability only mildly; DMSO vehicle for the knock-down-alone arm
- Read-out: 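Mean viability over replicates against non-targeting siRNA, robust z-score without drug, and per-drug synergy comparing combined with single treatments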
- Direction: viability robust z-score, siRNA alone: higher = more surviving cells; below -3 called essential; viability vs control, no drug: higher = more surviving cells; synergy score with BYL719 and synergy score with cetuximab and synergy score with trametinib: higher = stronger synergy (synthetic lethality) with drug
- Active means: 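Essential when the robust z-score for knock-down alone falls below -3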
- Meaning of the calls: active = essential (knock-down alone lowers viability); inactive = no essential effect
Here is a random part of 794 reagents. Over the whole deposit, 13 (1.6%) are marked active. 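Calls reflect only knock-down without drug; synergy above 0.15 was grouped apart and does not change the call.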 Unmarked entries are inactive. Viability is capped at 1. Not given: the amount of reagent, the time to read-out.

target	viability robust z-score, siRNA alone	viability vs control, no drug (fraction of control)	synergy score with BYL719	synergy score with cetuximab	synergy score with trametinib
EPHA6 (EPH receptor A6)	0.232	0.961	0.0692	-0.0919	0.168
SPHK1 (sphingosine kinase 1)	0.602	1	-0.0781	-0.0283	0.0719
PSKH2 (protein serine kinase H2)	0.602	1	0.0763	-0.1	0.103
STK36 (serine/threonine kinase 36)	0.602	1	-0.0957	-0.1	0.088
STK4 (serine/threonine kinase 4)	0.602	1	-0.0718	-0.1	0.0331
CAMK2B (calcium/calmodulin dependent protein kinase II beta)	0.602	1	-0.0463	-0.0476	0.329
ERN2 (endoplasmic reticulum to nucleus signaling 2)	-2.64	0.663	-0.143	-0.12	0.0497
KSR1 (kinase suppressor of ras 1)	-1.11	0.822	-0.164	-0.235	0.0213
PKN1 (protein kinase N1)	0.602	1	-0.0757	-0.1	-0.0818
MYLK (myosin light chain kinase)	0.458	0.985	0.0337	-0.114	0.198
CPNE3 (copine 3)	0.602	1	-0.00955	-0.1	0.0853
MAP2K2 (mitogen-activated protein kinase kinase 2)	0.602	1	-0.214	-0.1	-0.0565
PHKG2 (phosphorylase kinase catalytic subunit gamma 2)	0.602	1	-0.148	-0.1	-0.00969
GALK2 (galactokinase 2)	-0.0697	0.93	0.104	0.0346	0.13
ITPKA (inositol-trisphosphate 3-kinase A)	0.381	0.977	-0.0451	-0.0181	0.192
PRKAR2B	-1.07	0.826	-0.229	-0.257	0.097
COASY (Coenzyme A synthase)	-0.509	0.885	-0.015	-0.109	0.0602
PKIA (cAMP-dependent protein kinase inhibitor alpha)	0.602	1	-0.0233	-0.1	0.0212
MKNK2 (MAPK interacting serine/threonine kinase 2)	0.602	1	-0.0496	0.0901	0.0966
NUP62 (nucleoporin 62)	0.602	1	-0.283	-0.1	-0.149

4 consecutive entries from above, for reference:
target	viability robust z-score, siRNA alone	viability vs control, no drug (fraction of control)	synergy score with BYL719	synergy score with cetuximab	synergy score with trametinib
CAMK2B (calcium/calmodulin dependent protein kinase II beta)	0.602	1	-0.0463	-0.0476	0.329
ERN2 (endoplasmic reticulum to nucleus signaling 2)	-2.64	0.663	-0.143	-0.12	0.0497
KSR1 (kinase suppressor of ras 1)	-1.11	0.822	-0.164	-0.235	0.0213
PKN1 (protein kinase N1)	0.602	1	-0.0757	-0.1	-0.0818

The results go on:
target	viability robust z-score, siRNA alone	viability vs control, no drug (fraction of control)	synergy score with BYL719	synergy score with cetuximab	synergy score with trametinib
AK3 (adenylate kinase 3)	0.602	1	-0.178	-0.1	-0.0073
CERK (ceramide kinase)	0.602	1	-0.0396	0.0588	0.0576
NME4 (NME/NM23 nucleoside diphosphate kinase 4)	0.602	1	-0.239	-0.1	-0.182
PIK3C2A	0.602	1	-0.283	-0.1	0.137
CKS1B (CDC28 protein kinase regulatory subunit 1B)	-0.36	0.9	-0.0724	0.0648	0.142
KCNH2 (potassium voltage-gated channel subfamily H member 2)	0.573	0.997	0.00993	-0.103	0.211
MAPK12 (mitogen-activated protein kinase 12)	0.602	1	-0.00898	0.0313	0.0114
NEK9 (NIMA related kinase 9)	-0.224	0.914	-0.168	-0.178	0.173
BMX (BMX non-receptor tyrosine kinase)	-0.322	0.904	-0.187	0.0227	0.207
STRADB (STE20 related adaptor beta)	0.602	1	-0.146	-0.1	-0.0482
NTRK2 (neurotrophic receptor tyrosine kinase 2)	0.602	1	-0.214	-0.1	-0.102
MAPK10 (mitogen-activated protein kinase 10)	0.602	1	-0.217	-0.1	0.0421
CSNK1D (casein kinase 1 delta)	0.602	1	-0.283	-0.1	-0.0711
STAG2 (STAG2 cohesin complex component)	0.602	1	-0.115	-0.1	0.0815
STKLD1 (serine/threonine kinase like domain containing 1)	-0.707	0.864	-0.0843	-0.207	0.193
MET (MET proto-oncogene, receptor tyrosine kinase)	0.602	1	-0.204	-0.1	0.0129
NRBP2 (nuclear receptor binding protein 2)	0.602	1	-0.153	-0.0888	-0.0186
PDPK1 (3-phosphoinositide dependent protein kinase 1)	0.602	1	-0.207	-0.1	0.182
NME7 (NME/NM23 family member 7)	0.602	1	-0.199	-0.1	-0.118
MAP4K4 (mitogen-activated protein kinase kinase kinase kinase 4)	0.602	1	-0.213	-0.1	-0.11
MAP3K13 (mitogen-activated protein kinase kinase kinase 13)	0.602	1	-0.00613	-0.1	-0.0686
STK3 (serine/threonine kinase 3)	0.602	1	-0.283	-0.1	-0.201
DGKB (diacylglycerol kinase beta)	-2.3	0.699	-0.0379	0.0186	0.0697
MAP3K5 (mitogen-activated protein kinase kinase kinase 5)	0.602	1	-0.283	-0.1	0.0522
ROR2 (ROR family WNT receptor 2)	0.602	1	-0.0539	-0.0764	0.109
TP53BP1 (tumor protein p53 binding protein 1)	0.602	1	-0.283	-0.1	-0.355
HK1 (hexokinase 1)	-0.0572	0.931	-0.105	-0.162	0.0448
EGFR (epidermal growth factor receptor)	-0.448	0.891	-0.098	-0.153	-0.0884
MARK1 (microtubule affinity regulating kinase 1)	0.602	1	-0.283	-0.1	0.0294
PRP4K (pre-mRNA processing factor kinase PRP4K)	0.201	0.958	-0.0864	-0.138	0.0593
